# Library screen at single concentrations

Sequences of proteins named here, by UniProt entry; tags and fusion partners are left off. Residues count along the entry.
UniProt Q4DA54, 1-478: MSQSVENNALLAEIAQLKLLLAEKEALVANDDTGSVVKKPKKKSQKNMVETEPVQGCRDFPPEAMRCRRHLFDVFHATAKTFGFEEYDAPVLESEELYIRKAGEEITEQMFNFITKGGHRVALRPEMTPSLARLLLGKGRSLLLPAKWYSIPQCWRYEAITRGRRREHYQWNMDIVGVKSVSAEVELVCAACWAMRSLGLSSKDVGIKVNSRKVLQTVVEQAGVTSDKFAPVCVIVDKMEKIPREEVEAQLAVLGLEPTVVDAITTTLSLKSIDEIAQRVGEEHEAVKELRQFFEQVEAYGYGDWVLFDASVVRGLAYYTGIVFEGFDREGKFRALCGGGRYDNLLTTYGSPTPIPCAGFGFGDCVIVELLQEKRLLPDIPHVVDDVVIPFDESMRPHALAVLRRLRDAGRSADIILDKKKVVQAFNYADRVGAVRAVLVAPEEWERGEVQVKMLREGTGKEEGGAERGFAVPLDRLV

The filed quantity is “Percent Effect” (%).
The controls that fix the scale are not given in the record; negative values are as filed.
Compounds were drawn at random from those tested, without regard to their results.

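Enzyme assay of histidyl-tRNA synthetase; the read-out is not stated. Target: Histidine-tRNA ligase, Trypanosoma cruzi CL Brener (UniProt Q4DA54). Tested at 30 µM. The record gives no direction; compounds that gave an IC50 in retests scored well above the rest, so higher reads as stronger inhibition. Of about 69,000 compounds tested this way, about 31 (0.045%) reached 50% or more in at least one test.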

SMILES: O[C@@H]1C[C@@](CNCc2cccc(Cl)c2)(COc2cnccn2)C[C@@H]1O
Percent Effect: 4.348

SMILES: CC(Cn1cccn1)NC(=O)Nc1cccnc1 (stereo not drawn)
Percent Effect: 6.349

SMILES: CC(NC(=O)C1=NN(C)C(=O)CC1)c1ccc(Cl)cc1Cl (stereo not drawn)
Percent Effect: 0

SMILES: COCc1ncn2c1CN(C(=O)c1cccc3cccnc13)CC2
Percent Effect: 0.9346

SMILES: COc1ccccc1C(=O)NCCC(=O)Nc1c(C)nn(C)c1C
Percent Effect: 0

SMILES: CC(Cn1cccn1)NCC(=O)NCCc1cccs1 (stereo not drawn)
Percent Effect: 5.085

SMILES: CSCCC(=O)N1CCCCC1CCn1cccn1 (stereo not drawn)
Percent Effect: 5.882

SMILES: CC(C)C(=O)NC1COC2(CCN(C(=O)c3ccc[nH]3)CC2)C1 (stereo not drawn)
Percent Effect: 7.767

SMILES: Cc1cc(CN2CCN(C(C)c3nc(C(C)C)no3)CC2)no1 (stereo not drawn)
Percent Effect: 5.172

SMILES: O=C(NCC1CCOC1)c1csc(-c2ccccc2)n1 (stereo not drawn)
Percent Effect: 3.448

SMILES: CCc1cnc(N2C[C@H]3CN(Cc4csc(C)n4)C(=O)[C@H]3C2)nc1
Percent Effect: 3.743

SMILES: N#Cc1cccc(NC(=O)N[C@H](CO)c2ccccc2)c1
Percent Effect: 3.333

SMILES: CSCc1noc(CN2CCC3(CC2)CC(=O)N(CC(C)C)C3)n1
Percent Effect: 5.357

SMILES: CCN(CC)C(=O)c1ccn(COc2cc(C)cc(C)c2)n1
Percent Effect: 0.5464

SMILES: Cc1nccc(CNc2cc(N3CCCC3CO)ncn2)n1 (stereo not drawn)
Percent Effect: 3.704

SMILES: Cn1ccc(C(=O)N2CCCC2c2[nH]ncc2C(N)=O)n1 (stereo not drawn)
Percent Effect: 2.985

SMILES: CN(C)c1ccc(CCCNC(=O)NCC(O)c2ccsc2)cc1 (stereo not drawn)
Percent Effect: 3.093

SMILES: COc1ccc(OC2CCN(C(=O)CCc3nc(Cl)n[nH]3)CC2)cc1
Percent Effect: 4

SMILES: Cc1nc(C)n(CC(C)C(=O)N2CCC(NS(C)(=O)=O)CC2)n1 (stereo not drawn)
Percent Effect: 3.03

SMILES: NC(=O)NC(=O)CCN1CCCC1c1nc(C2CCCCC2)co1 (stereo not drawn)
Percent Effect: 1.657

SMILES: O=C(NCc1nnc2n1CCC2)NCC1(c2cccc(F)c2)CC1
Percent Effect: -5

SMILES: O=C1CC[C@@H]2[C@@H](CCN2Cc2ccncc2)N1c1ccccc1
Percent Effect: 4.865

SMILES: CC(=O)N1CCCN(C(=O)NCCCn2cncn2)CC1
Percent Effect: 6.509

SMILES: CC(=O)N1CCCC1c1ccnc(Nc2cncnc2)n1 (stereo not drawn)
Percent Effect: 1.498

SMILES: O=C(c1cccnc1)N1CCN(c2ccc(-n3cccc3)nn2)CC1
Percent Effect: 4.39

SMILES: CCc1nc(C)cc(N2CCN(C(=O)[C@@H]3C[C@@H]4C=C[C@H]3C4)CC2)n1
Percent Effect: 5.747

SMILES: CN(C)c1cc(N2CCN(c3ccccn3)CC2)ncn1
Percent Effect: 3.409

SMILES: CCCn1cc(-c2cc(C(=O)N(C)C)c3cccc(C)c3n2)cn1
Percent Effect: 6.03

SMILES: NC(=O)CN1CC2(CCC1=O)CCN(Cc1ccc(F)cc1Cl)CC2
Percent Effect: 6.704

SMILES: Cc1nccn1-c1ccc(=O)n(CCNC(=O)Cc2ccccc2)n1
Percent Effect: 12

SMILES: O=C(NC1CCNCC1)C1(N2CCCCC2)Cc2ccccc2C1
Percent Effect: 8.081

SMILES: CCn1nccc1CNC(=O)NC1CCCCC1
Percent Effect: 3.347

SMILES: COc1cccc(N2CCN(C(=O)C(O)CC(C)C)CC2=O)c1 (stereo not drawn)
Percent Effect: 0.8333

SMILES: Cc1ccc(CN2CCOC3(COCCN(Cc4ccncc4)C3)C2)o1 (stereo not drawn)
Percent Effect: 6.122

SMILES: COc1ccc(-n2nc(C(C)C)nc2Cn2cncn2)cc1
Percent Effect: 9.091

SMILES: Nc1nccnc1C(=O)NC1CCN(Cc2ccccc2)C1 (stereo not drawn)
Percent Effect: 1.657

SMILES: c1ccc(O[C@H]2CC[C@H]3[C@H]2OCCN3Cc2nccs2)nc1
Percent Effect: 1.674

SMILES: CC(Cn1cncn1)NCCN1CCc2ccccc2C1 (stereo not drawn)
Percent Effect: 4.124

SMILES: O=C1CN(C(=O)c2cc3c(F)cc(Br)cc3[nH]2)CCN1
Percent Effect: 1.739

SMILES: O=S(=O)(C1CC1)N1CCC2(CC1)COC(COc1cccnc1)C2 (stereo not drawn)
Percent Effect: -1.149

SMILES: COCC1CCN(c2ccnc3ccsc23)C1 (stereo not drawn)
Percent Effect: 12.17

SMILES: CC(C)CN1Cc2nc(N3CCC(O)CC3)ncc2C1=O
Percent Effect: -4.018

SMILES: COc1c(CNCc2ccnc(N(C)C)c2)c(C(C)C)nn1C
Percent Effect: 7.101

SMILES: CC(=O)N1CC2(CCN(C(=O)c3ccc4c(c3)OCCO4)CC2)C1
Percent Effect: 2.913

SMILES: CC(C)CCN1CC2(CCCN(C(=O)c3cscn3)C2)CCC1=O (stereo not drawn)
Percent Effect: 2.51

SMILES: CN(CCn1cnc(-c2ccccc2)c1-c1ncc[nH]1)S(C)(=O)=O
Percent Effect: 3.093

SMILES: Cc1cc2nc(SCC(=O)N3CCCC3)n(C(C)C)c(=O)c2[nH]1
Percent Effect: 0

SMILES: COCC(=O)N1CC[C@@H](N2CCOCC2)[C@@H]1Cc1cccnc1
Percent Effect: 0.8264

SMILES: CN(Cc1nncn1-c1cccc(C(F)(F)F)c1)S(C)(=O)=O
Percent Effect: 4

SMILES: CCCN1Cc2nc(N3CCCC3)ncc2C1=O
Percent Effect: 3.125

SMILES: Cc1cc(NC(=O)c2ccc(-n3ncc(C#N)c3N)cc2)n(C)n1
Percent Effect: 7.429

SMILES: CCC(O)(CNCc1ccncc1)c1ccc(Br)cc1 (stereo not drawn)
Percent Effect: 4.124

SMILES: Cc1ccc2c(c1)C(NC(=O)C1CCN(S(C)(=O)=O)CC1)CC(C)(C)O2 (stereo not drawn)
Percent Effect: 3.704

SMILES: CCCN1CCC(CC(=O)N2CC(C)(C)[C@@](C)(O)C2)CC1
Percent Effect: 1.734

7 of the entries, repeated:

{"smiles": "CCc1cnc(N2C[C@H]3CN(Cc4csc(C)n4)C(=O)[C@H]3C2)nc1", "Percent Effect": 3.743}
{"smiles": "CC(Cn1cccn1)NCC(=O)NCCc1cccs1", "stereo": "stereo not drawn", "Percent Effect": 5.085}
{"smiles": "CN(C)c1ccc(CCCNC(=O)NCC(O)c2ccsc2)cc1", "stereo": "stereo not drawn", "Percent Effect": 3.093}
{"smiles": "CCCn1cc(-c2cc(C(=O)N(C)C)c3cccc(C)c3n2)cn1", "Percent Effect": 6.03}
{"smiles": "O=C(NC1CCNCC1)C1(N2CCCCC2)Cc2ccccc2C1", "Percent Effect": 8.081}
{"smiles": "Cc1cc(NC(=O)c2ccc(-n3ncc(C#N)c3N)cc2)n(C)n1", "Percent Effect": 7.429}
{"smiles": "CC(=O)N1CCCN(C(=O)NCCCn2cncn2)CC1", "Percent Effect": 6.509}

Measurements from “University of Dundee, Small-Polar-MMV Screening Library” (2021), ChEMBL document CHEMBL3988442.